In publication PMC12059209:
These are yes or no findings as the source states them, for the method shown. Binding seen in cells or lysates may run through a third protein. Some binding calls cover weakened binding; strength is not graded here. For part of these data: Sequences can lack the tags named with a protein. One block for each molecule: values may come before it.

By UniProt entry, the sequences of proteins in these tests, tags left out.
UniProt P21127: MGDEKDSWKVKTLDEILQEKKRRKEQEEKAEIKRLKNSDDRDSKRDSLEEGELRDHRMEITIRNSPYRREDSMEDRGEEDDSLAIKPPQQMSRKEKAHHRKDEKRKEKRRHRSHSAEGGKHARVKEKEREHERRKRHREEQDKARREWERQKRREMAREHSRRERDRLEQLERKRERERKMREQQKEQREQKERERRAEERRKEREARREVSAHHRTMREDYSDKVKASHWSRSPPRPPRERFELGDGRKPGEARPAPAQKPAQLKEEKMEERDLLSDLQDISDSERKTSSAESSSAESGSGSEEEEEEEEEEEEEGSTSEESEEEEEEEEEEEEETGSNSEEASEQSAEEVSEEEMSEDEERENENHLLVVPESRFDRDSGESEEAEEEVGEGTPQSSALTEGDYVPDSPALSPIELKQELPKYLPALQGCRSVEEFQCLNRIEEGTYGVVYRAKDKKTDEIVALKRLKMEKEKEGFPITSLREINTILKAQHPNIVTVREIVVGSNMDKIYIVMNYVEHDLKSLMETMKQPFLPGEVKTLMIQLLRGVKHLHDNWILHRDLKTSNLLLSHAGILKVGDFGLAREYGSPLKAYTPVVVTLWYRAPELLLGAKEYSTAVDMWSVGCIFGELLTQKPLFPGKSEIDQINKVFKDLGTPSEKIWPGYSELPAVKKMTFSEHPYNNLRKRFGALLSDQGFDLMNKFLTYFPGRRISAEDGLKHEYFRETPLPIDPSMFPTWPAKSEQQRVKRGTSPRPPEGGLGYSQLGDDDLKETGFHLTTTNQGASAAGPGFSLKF

Legend:
[1] = target: T1, Flag-USP22 (161-525 aa) (UniProt Q9UPT9); experiment: co-IP; HEK-293FT cells transfected with Flag-USP22 or its truncations; IP with anti-Flag, blot with anti-CDK11B; 50 mM Tris-HCl pH 7.4, 150 mM NaCl, 1 mM EDTA, 0.5% Triton X-100, overnight at 4°C
T1 sequence: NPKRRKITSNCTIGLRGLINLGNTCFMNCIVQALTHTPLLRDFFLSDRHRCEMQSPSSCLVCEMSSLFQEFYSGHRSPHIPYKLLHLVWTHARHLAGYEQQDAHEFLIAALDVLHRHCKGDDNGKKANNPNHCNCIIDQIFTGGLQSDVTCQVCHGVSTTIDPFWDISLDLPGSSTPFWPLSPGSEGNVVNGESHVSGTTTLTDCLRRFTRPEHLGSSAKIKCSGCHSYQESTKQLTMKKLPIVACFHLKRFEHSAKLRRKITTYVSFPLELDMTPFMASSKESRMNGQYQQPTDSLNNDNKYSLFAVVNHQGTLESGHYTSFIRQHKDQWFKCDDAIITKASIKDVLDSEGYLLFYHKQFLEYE

[2] = target: T2, Flag-USP22 (1-160 aa) (UniProt Q9UPT9); experiment: as above
T2 sequence: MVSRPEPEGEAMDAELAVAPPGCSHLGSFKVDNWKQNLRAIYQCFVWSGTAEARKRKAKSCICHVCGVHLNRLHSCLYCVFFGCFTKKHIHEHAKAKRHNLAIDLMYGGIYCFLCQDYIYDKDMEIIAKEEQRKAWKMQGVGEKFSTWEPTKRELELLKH

[3] = target: T3, Flag-USP22 (ubiquitin-specific protease 22, full length) (UniProt Q9UPT9); experiment: as above
T3 sequence: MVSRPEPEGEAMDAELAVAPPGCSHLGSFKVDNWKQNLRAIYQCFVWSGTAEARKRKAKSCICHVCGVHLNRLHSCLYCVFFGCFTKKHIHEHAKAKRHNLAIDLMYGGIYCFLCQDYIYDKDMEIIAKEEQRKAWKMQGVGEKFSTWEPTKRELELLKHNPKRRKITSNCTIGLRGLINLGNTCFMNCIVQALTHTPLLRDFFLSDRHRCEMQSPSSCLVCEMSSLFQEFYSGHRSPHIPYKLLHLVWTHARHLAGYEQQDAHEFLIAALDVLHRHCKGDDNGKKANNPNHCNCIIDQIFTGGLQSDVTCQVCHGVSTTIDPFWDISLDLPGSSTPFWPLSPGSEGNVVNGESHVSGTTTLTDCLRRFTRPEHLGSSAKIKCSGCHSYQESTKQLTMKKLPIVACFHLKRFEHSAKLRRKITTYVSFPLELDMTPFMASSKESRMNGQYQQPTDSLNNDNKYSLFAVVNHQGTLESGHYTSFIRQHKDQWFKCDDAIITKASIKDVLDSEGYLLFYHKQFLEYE

[4] = target: T4, ubiquitin-specific protease 22 (USP22), endogenous (human (endogenous in HEK-293FT, HepG2, Hep3B, Huh7)) (UniProt Q9UPT9); experiment: co-IP; endogenous proteins in HepG2, Hep3B and Huh7 lysates; IP with anti-USP22 and blot with anti-CDK11B, and IP with anti-CDK11B and blot with anti-USP22; 50 mM Tris-HCl pH 7.4, 150 mM NaCl, 1 mM EDTA, 0.5% Triton X-100, overnight at 4°C
T4 sequence: T3 sequence

[5] = target: His-CDK11B (UniProt P21127); experiment: co-IP; HEK-293FT cells transfected with His-CDK11B; IP with anti-His, blot with anti-USP22; 50 mM Tris-HCl pH 7.4, 150 mM NaCl, 1 mM EDTA, 0.5% Triton X-100, overnight at 4°C
[6] = target: cyclin-dependent kinase 11B (CDK11B), endogenous (human (endogenous in HEK-293FT, HepG2, Hep3B, Huh7)) (UniProt P21127); experiment: co-IP; endogenous proteins in HepG2, Hep3B and Huh7 lysates; IP with anti-USP22 and blot with anti-CDK11B, and IP with anti-CDK11B and blot with anti-USP22; 50 mM Tris-HCl pH 7.4, 150 mM NaCl, 1 mM EDTA, 0.5% Triton X-100, overnight at 4°C

binding [1]: binds | binding [2]: binds | binding [3]: binds | binding [4]: binds
Molecule: cyclin-dependent kinase 11B (CDK11B), endogenous (from UniProt P21127 1-795)

binding [5]: binds | binding [6]: binds
B1: ubiquitin-specific protease 22 (USP22), endogenous (enzyme, UniProt Q9UPT9 1-525)
chain: T3 sequence
